# Laboratory results as given in the supplement of paper PMC3334620.
# The full ranking holds about 33,000 sequences; the median of “E-score (-0.5 to 0.5)” is about -0.0014, and the highest 2% start at about 0.25. The list shows a part of the results.
# Molecular target: T1, Cad1 (UniProt P24813)
# T1 sequence: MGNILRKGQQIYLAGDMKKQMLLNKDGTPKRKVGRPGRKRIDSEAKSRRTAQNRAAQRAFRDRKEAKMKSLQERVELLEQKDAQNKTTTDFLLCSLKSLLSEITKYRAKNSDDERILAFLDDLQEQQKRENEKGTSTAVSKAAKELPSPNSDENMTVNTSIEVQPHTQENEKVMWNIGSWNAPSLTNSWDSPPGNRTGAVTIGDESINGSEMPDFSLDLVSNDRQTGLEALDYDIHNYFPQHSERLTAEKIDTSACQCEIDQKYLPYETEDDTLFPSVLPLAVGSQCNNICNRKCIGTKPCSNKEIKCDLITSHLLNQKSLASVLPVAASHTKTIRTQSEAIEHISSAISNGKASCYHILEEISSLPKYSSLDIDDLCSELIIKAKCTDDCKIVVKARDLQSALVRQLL
# Assay: PBM E-score (8-mer binding enrichment) (E-score (-0.5 to 0.5)); higher = stronger / more preferred TF binding
# Details: protein concentration: 100 nM; construct: GST-full length
# Description: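 Universal 'all 10-mer' protein binding microarrays (Agilent AMADID 015681) probed with GST-tagged S. cerevisiae TFs (full-length or DBD) made by in vitro transcription/translation (PURExpress), about 100-200 nM. Bound TF was detected with fluorescent anti-GST. Each ungapped 8-mer (which stands for itself and its reverse complement) is scored by the PBM enrichment score (E-score), a modified Wilcoxon-Mann-Whitney statistic from -0.5 to +0.5, computed with the Universal PBM Analysis Suite. Scale: above 0.35 generally sequence-specific binding.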
row,Sequence,PBM E-score
1,AGATCAGC,0.0485
2,CCATTACC,-0.054
3,CGAAAATA,0.163
4,GAGAGTTA,-0.154
5,ATCTCTTC,0.0988
6,ACTCGCGC,0.0881
7,TGTGAACA,-0.0062
8,AATTATGG,0.216
9,CCAGCCCC,0.0778
10,TGGTCAAA,0.195
11,GTGTTGGA,0.0266
12,CACCTTAA,-0.0508
13,CGGGTCAA,-0.00347
14,CATCGTAC,0.00513
15,GTCGACAC,0.0655
16,TACGTAAA,0.173
17,ACATCCCA,-0.118
18,AGGCCAAT,-0.0024
19,CCGTTAGG,-0.0358
20,AGCTAACA,0.00651
21,CAATAGAC,0.0128
22,ATCCCTAC,0.0636

row,Sequence,PBM E-score
1,GAGAGGGA,-0.251
2,AGGCGAAC,-0.147
3,GAGAAGCA,-0.301
4,CTAATAAA,0.0515
5,AACTAAGG,0.00458
6,GGCTTTGA,0.101
7,CGACCCTC,-0.211
8,AAGGCGTG,-0.0602
9,GACGCCCA,-0.0981
10,ACCACGGT,-0.2
11,CCCGTAGA,-0.391
12,ACAATCGC,0.186
13,ACATGCCC,-0.183
14,AGGTCTAA,0.0708
15,AAAATACT,0.135
16,AAATATGT,0.277
17,CAAGTCCG,0.0411
18,CCCACCAG,-0.0671
19,ATGAGTCA,0.145
20,ATATTCAG,0.0684
21,GCACCCCA,-0.138
22,ATGAATTG,0.0962

# Copied from the list:
# For PBM E-score, AAAATACT is listed with 0.135
# For PBM E-score, GGCTTTGA is listed with 0.101

# Later entries:

row,Sequence,PBM E-score
1,GTCAGCGA,-0.00445
2,AATCAGGG,-0.0895
3,ACGGGACG,-0.112
4,CACACCGC,0.041
5,AACATAGG,-0.0757
6,TAAACTGA,0.119
7,AGTAAGAG,0.0775
8,ACGTCGGC,0.0403
9,CCTCCAAA,-0.253
10,GCGTCACA,-0.011
11,ACCTATTC,-0.0854
12,AAAGGCTA,-0.175
13,ACCGCACA,-0.0189
14,AAGTCCGG,0.0495
15,GATTCTAA,-0.00114
16,AAATCGGA,0.171
17,GTCATTGA,-0.0116
18,CCTTTGCA,-0.0663
19,GCTAAGTA,0.191
20,CCGTATTC,-0.0178
21,AGCTGACA,0.192
22,AGCGGCCT,-0.104

row,Sequence,PBM E-score
1,AGTTGTAG,0.0997
2,GCTGCGCA,0.00523
3,ACGCTCGA,0.0803
4,ACAAGGGA,-0.111
5,CCCGAAGA,-0.0938
6,CCAAACGA,0.0619
7,ATGGGCAG,-0.0566
8,GCATCCGA,-0.0284
9,AGTCGACC,0.107
10,TACGGCCA,-0.105
11,GCGAGAAC,0.0451
12,ACTTAGCT,-0.106
13,ATCTGTAA,0.0272
14,AACTAACG,0.122
15,ACCTGTCT,-0.11
16,ACAGCACA,0.132
17,CGGCTTTA,-0.151
18,GCCCCGCA,-0.186
19,ACACCCCG,-0.211
20,GCCTAGGA,-0.158
21,CTGCTTGC,-0.0849
22,CAATTGAG,0.138

# Retrieved one by one from the entries so far:
row,Sequence,PBM E-score
14,AACTAACG,0.122
3,ACGCTCGA,0.0803
4,ACAAGGGA,-0.111

# Later entries

row,Sequence,PBM E-score
1,ATCTATCG,-0.0482
2,ATAACTGC,0.0321
3,AGCAAGTC,-0.088
4,ACGGAGCT,-0.227
5,ATTTTCTG,0.0276
6,AAGCCCCA,-0.197
7,ACGACGTC,-0.0646
8,CAAGAGAA,0.115
9,CGTACTGA,0.0404
10,CGGACTGA,0.0224
11,GTAACACA,0.108
12,CGCCCCTA,-0.0364
13,AACAGTAG,0.0345
14,AAAGTCGC,0.124
15,AATCAGAG,0.126
16,GGACTAAA,-0.0691
17,CGATCGGC,0.0161
18,CATTGAGA,-0.109
19,GGATTCCC,-0.297
20,AGCAAACA,0.077
21,CAGCGTCA,-0.131
22,CCAGGTCA,-0.323
